Results taken from US20080108573A1, “Compositions And Methods For Treatment Of Cardiovascular Disease” (priority 2004, published 2008).
Part of at least one peptide drawing is inferred or uncertain, most often the ends.

Test system: WKY rats on high salt diet
Test: Effect of VIP fragments on myocardial fibrosis (Example 5)
Assay type: in vivo, rat
Settings: for degree of myocardial fibrosis compared with vehicle control: 5 pmol/kg/min for 4 weeks via Alzet minipump, Masson Trichrome sections; for effectiveness on myocardial fibrosis relative to complete VIP: 5 pmol/kg/min for 4 weeks, relative to VIP at the same dose

CC[C@H](C)[C@H](NC(=O)[C@H](CO)NC(=O)[C@H](CC(N)=O)NC(=O)[C@H](CC(C)C)NC(=O)[C@H](Cc1ccc(O)cc1)NC(=O)[C@H](CCCCN)NC(=O)[C@H](CCCCN)NC(=O)[C@@H](NC(=O)[C@H](C)NC(=O)[C@H](CCSC)NC(=O)[C@H](CCC(N)=O)NC(=O)[C@H](CCCCN)NC(=O)[C@H](CCCNC(=N)N)NC(=O)[C@H](CC(C)C)NC(=O)[C@H](CCCNC(=N)N)NC(=O)[C@@H](NC(=O)[C@H](Cc1ccc(O)cc1)NC(=O)[C@H](CC(N)=O)NC(=O)[C@H](CC(=O)O)NC(=O)[C@@H](NC(=O)[C@@H](N)Cc1ccccc1)[C@@H](C)O)[C@@H](C)O)C(C)C)C(=O)N[C@@H](CC(C)C)C(=O)N[C@@H](CC(N)=O)C(N)=O [VIP(6-28)]
degree of myocardial fibrosis compared with vehicle control: decreased the degree of myocardial fibrosis
effectiveness on myocardial fibrosis relative to complete VIP: as effective as VIP

CC(C)[C@H](NC(=O)[C@H](C)NC(=O)[C@H](CC(=O)O)NC(=O)[C@H](CO)NC(=O)[C@@H](N)Cc1c[nH]cn1)C(=O)N[C@@H](Cc1ccccc1)C(=O)N[C@H](C(=O)N[C@@H](CC(=O)O)C(=O)N[C@@H](CC(N)=O)C(=O)N[C@@H](Cc1ccc(O)cc1)C(=O)N[C@H](C(=O)N[C@@H](CCCNC(=N)N)C(=O)O)[C@@H](C)O)[C@@H](C)O [VIP(1-12)]
degree of myocardial fibrosis compared with vehicle control: decreased the degree of myocardial fibrosis
effectiveness on myocardial fibrosis relative to complete VIP: approximately ⅓
